Some of the results follow. Further columns of the screen follow, without active or inactive calls. For some assays here: Most of these compounds were active or inconclusive in the main read-out, so they are no random draw.

One assay in a line: PubChem AID 1586. Conditions: yeast two-hybrid polyglutamine protein interaction, reporter readout; measured here: averaged growth delta OD.
Compound `CCCCCCc1ccc(O)cc1O` displayed a signal change (36 h minus 0 h) of 0.113.
In the case of `CC(=O)OCC(=O)[C@@]1(O)[C@H](C)CC2C3CCC4=CC(=O)C=C[C@]4(C)[C@@]3(F)[C@@H](O)C[C@@]21C` (stereo not given in full), the signal change (36 h minus 0 h) was 0.44.
The same measure, in the same setting: next, `NNC(=O)c1ccncc1`: 0.0249.
The compound `CCn1cc(C(=O)O)c(=O)c2cc(F)c(N3CCNCC3)cc21` displayed a signal change (36 h minus 0 h) of 0.116.
On to `CCC(=O)O[C@@H](O[P@](=O)(CCCCc1ccccc1)CC(=O)N1C[C@H](C2CCCCC2)C[C@H]1C(=O)O)C(C)C`, for which the signal change (36 h minus 0 h) came out at 0.042.
Turning to `O=C(Nc1ccc([N+](=O)[O-])cc1Cl)c1cc(Cl)ccc1O`, the signal change (36 h minus 0 h) was 0.216.
As for `Cc1ccccc1N1C(=O)c2cc(S(N)(=O)=O)c(Cl)cc2NC1C` (stereo not given), the signal change (36 h minus 0 h) was determined as 0.207.
Turning to `C[C@H](CCC(=O)O)[C@H]1CCC2C3C(=O)CC4CC(=O)CC[C@]4(C)C3CC(=O)[C@@]21C` (stereo not given in full), the signal change (36 h minus 0 h) is 0.0732.
On to `CNC(C)[C@@H]1CC[C@@H](N)[C@@H](OC2[C@@H](N)C[C@@H](N)[C@H](OC3OC[C@](C)(O)[C@H](NC)[C@H]3O)[C@H]2O)O1` (stereo not given in full), for which the signal change (36 h minus 0 h) turned out to be 0.0718.
For the compound `C[C@H]1c2cccc(O)c2C(O)=C2C(=O)[C@]3(O)C(O)=C(C(N)=O)C(=O)[C@@H](N(C)C)[C@@H]3[C@@H](O)[C@@H]21`, the signal change (36 h minus 0 h) was 0.134.
`CC(C(=O)O)c1ccc(C(=O)c2cccs2)cc1` (stereo not given) displayed a signal change (36 h minus 0 h) of 0.0661.
On the same count and under the same terms, next, `Nc1nc(N)c2nc(-c3ccccc3)c(N)nc2n1`: 0.135.
`NCCCCN` yielded a signal change (36 h minus 0 h) of 0.0385.
As for `CC(C)(C)NC[C@@H](O)COc1nsnc1N1CCOCC1`, the signal change (36 h minus 0 h) came out at 0.222.
`O=C(O)c1cc2cc(Cc3cccnc3)ccc2o1` displayed a signal change (36 h minus 0 h) of 0.206.
The compound `O=C(O)C1CCCNC1` (stereo not given) showed a signal change (36 h minus 0 h) of 0.0956.
As to `O=C1c2c(O)ccc(O)c2C(=O)c2c(NCCNCCO)ccc(NCCNCCO)c21`, the signal change (36 h minus 0 h) was found to be 0.144.

A short description of another assay: enhancers of SMN2 over SMN1 splicing, cell-based, SMN2/SMN1 luciferase reporters (AID 1598). Conditions: SMN2 vs SMN1 luciferase splicing reporter cells, at 10 µM; SMN1 luciferase ratio: measured here: SMN1 luciferase reporter average; SMN2 luciferase ratio: measured here: SMN2 luciferase reporter average, stronger effect = higher value.
Regarding `Nc1nc(=S)c2[nH]cnc2[nH]1`, the SMN2 luciferase ratio came to 0.67 and the SMN1 luciferase ratio was found to be 0.64.
Take `NS(=O)(=O)c1cc2c(cc1Cl)NC=NS2(=O)=O`: the SMN1 luciferase ratio was determined as 0.92 and the SMN2 luciferase ratio turned out to be 0.85.
`C[N+](C)(C)CCCCCC[N+](C)(C)C`: the SMN1 luciferase ratio was 0.93 and the SMN2 luciferase ratio worked out at 0.87.
For the compound `O=C(O)CCC(=O)c1ccc(-c2ccccc2)cc1`, the SMN1 luciferase ratio turned out to be 0.99 and the SMN2 luciferase ratio was determined as 1.01.
For `COc1ccc2cc3[n+](cc2c1OC)CCc1cc2c(cc1-3)OCO2`, the SMN1 luciferase ratio was found to be 0.56 and the SMN2 luciferase ratio stood at 0.55.
`CN[C@H](CC(=O)O)C(=O)O`: the SMN2 luciferase ratio came to 0.82 and the SMN1 luciferase ratio came to 0.88.
For `CCCCC(CC)CN=C(N)NC(N)=NCCCCCCN=C(N)NC(N)=NCC(CC)CCCC` (stereo not given), the SMN2 luciferase ratio turned out to be 0.31 and the SMN1 luciferase ratio turned out to be 0.31.
As for `CC(C)(C)c1ccc(C(O)CCCN2CCC(C(O)(c3ccccc3)c3ccccc3)CC2)cc1` (stereo not given), the SMN2 luciferase ratio came out at 0.84 and the SMN1 luciferase ratio amounted to 0.93.
As for `CC(NC(=O)C(NC(=O)OCc1ccccc1)C(C)C)C(=O)NC(CC(=O)O)C(=O)OC(F)F` (stereo not given), the SMN2 luciferase ratio was found to be 0.8 and the SMN1 luciferase ratio amounted to 0.94.
Regarding `CC(C)[N+]1(C)C2CC[C@@H]1CC(OC(=O)C(CO)c1ccccc1)C2` (stereo not given in full), the SMN1 luciferase ratio is 0.91 and the SMN2 luciferase ratio was 0.93.
`COc1ccc(C(=O)c2ccccc2)c(O)c1`: the SMN2 luciferase ratio was 0.94 and the SMN1 luciferase ratio is 0.92.
For the compound `COc1ccc(-c2coc3cc(O)cc(O)c3c2=O)cc1`, the SMN2 luciferase ratio was determined as 1.67 and the SMN1 luciferase ratio was 1.48.
In the case of `CON`, the SMN2 luciferase ratio amounted to 0.89 and the SMN1 luciferase ratio was 0.88.
Consider `OCC(S)CS` (stereo not given), for which the SMN2 luciferase ratio was 1.04 and the SMN1 luciferase ratio amounted to 0.94.
For `CCC1(C)CC(=O)NC1=O` (stereo not given), the SMN2 luciferase ratio turned out to be 0.95 and the SMN1 luciferase ratio was 0.94.
On the same counts, the results for `NCC1CCC(N)C(OC2C(N)CC(N)C(OC3OC(CO)C(O)C(N)C3O)C2O)O1` (stereo not given) are 0.95 and 0.95.
Take `CC(=O)OCC(COC(C)=O)OC(C)=O`: the SMN2 luciferase ratio is 1.01 and the SMN1 luciferase ratio is 0.93.
Consider `NS(=O)(=O)c1cc2c(cc1Cl)NC(CSCc1ccccc1)=NS2(=O)=O`, for which the SMN1 luciferase ratio stood at 0.9 and the SMN2 luciferase ratio is 0.92.
For `CC(=O)N[C@@H](CCC(=O)O)C(=O)O`, the SMN2 luciferase ratio turned out to be 0.91 and the SMN1 luciferase ratio is 0.98.
With `CCOC(N)=O`, the SMN2 luciferase ratio came to 0.93 and the SMN1 luciferase ratio is 0.87.
On the same counts, the results for `CCOC(=O)N1CCC(=C2c3ccc(Cl)cc3CCc3cccnc32)CC1` are 0.77 and 0.82.
For the compound `CCC(=O)OC1CCC2C3CCc4cc(O)ccc4C3CCC12C` (stereo not given), the SMN2 luciferase ratio was found to be 0.84 and the SMN1 luciferase ratio came to 0.82.
As to `CCCCCCc1ccc(O)cc1O`, the SMN2 luciferase ratio was 0.97 and the SMN1 luciferase ratio was 0.9.
As to `CC(=O)OCC(=O)[C@@]1(O)[C@H](C)CC2C3CCC4=CC(=O)C=C[C@]4(C)[C@@]3(F)[C@@H](O)C[C@@]21C` (stereo not given in full), the SMN1 luciferase ratio amounted to 0.86 and the SMN2 luciferase ratio turned out to be 0.86.
For the compound `NNC(=O)c1ccncc1`, the SMN2 luciferase ratio was found to be 0.87 and the SMN1 luciferase ratio stood at 0.81.
With `CCn1cc(C(=O)O)c(=O)c2cc(F)c(N3CCNCC3)cc21`, the SMN2 luciferase ratio turned out to be 0.76 and the SMN1 luciferase ratio stood at 0.87.
Consider `CCC(=O)O[C@@H](O[P@](=O)(CCCCc1ccccc1)CC(=O)N1C[C@H](C2CCCCC2)C[C@H]1C(=O)O)C(C)C`, for which the SMN1 luciferase ratio was determined as 0.87 and the SMN2 luciferase ratio was 0.86.
Take `O=C(Nc1ccc([N+](=O)[O-])cc1Cl)c1cc(Cl)ccc1O`: the SMN2 luciferase ratio was determined as 0.45 and the SMN1 luciferase ratio is 0.5.
Taken in the same sequence, the figures for `Cc1ccccc1N1C(=O)c2cc(S(N)(=O)=O)c(Cl)cc2NC1C` (stereo not given) were 0.88 and 0.85.
Taken in the same sequence, the figures for `C[C@H](CCC(=O)O)[C@H]1CCC2C3C(=O)CC4CC(=O)CC[C@]4(C)C3CC(=O)[C@@]21C` (stereo not given in full) were 0.81 and 0.9.
Turning to `CNC(C)[C@@H]1CC[C@@H](N)[C@@H](OC2[C@@H](N)C[C@@H](N)[C@H](OC3OC[C@](C)(O)[C@H](NC)[C@H]3O)[C@H]2O)O1` (stereo not given in full), the SMN2 luciferase ratio is 0.91 and the SMN1 luciferase ratio came out at 0.89.
For `C[C@H]1c2cccc(O)c2C(O)=C2C(=O)[C@]3(O)C(O)=C(C(N)=O)C(=O)[C@@H](N(C)C)[C@@H]3[C@@H](O)[C@@H]21`, the SMN1 luciferase ratio turned out to be 0.88 and the SMN2 luciferase ratio is 0.88.
With `CC(C(=O)O)c1ccc(C(=O)c2cccs2)cc1` (stereo not given), the SMN1 luciferase ratio worked out at 0.92 and the SMN2 luciferase ratio is 0.84.
For `Nc1nc(N)c2nc(-c3ccccc3)c(N)nc2n1`, the SMN1 luciferase ratio amounted to 0.83 and the SMN2 luciferase ratio amounted to 0.79.
In the case of `NCCCCN`, the SMN1 luciferase ratio was found to be 0.87 and the SMN2 luciferase ratio was determined as 0.88.
As to `CC(C)(C)NC[C@@H](O)COc1nsnc1N1CCOCC1`, the SMN2 luciferase ratio is 1 and the SMN1 luciferase ratio came out at 0.87.
Regarding `O=C(O)c1cc2cc(Cc3cccnc3)ccc2o1`, the SMN1 luciferase ratio amounted to 0.91 and the SMN2 luciferase ratio worked out at 1.05.
Taken in the same sequence, the figures for `O=C(O)C1CCCNC1` (stereo not given) were 0.84 and 0.91.
Turning to `O=C1c2c(O)ccc(O)c2C(=O)c2c(NCCNCCO)ccc(NCCNCCO)c21`, the SMN2 luciferase ratio was 0.31 and the SMN1 luciferase ratio was found to be 0.06.
